{"source": "PubChem BioAssay AID1259424 (University of Nebraska Medical Center, 2018)", "screen": "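Seek colon cancer survival genes behaving like KSR1, using a six-gene signature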 (primary screen)", "system": "human HCT116 colon cancer cells", "knock-down reagent": "siRNA pool against human genes, 50 nM", "measured": "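Six signature mRNAs by branched-DNA multiplex assay, scaled to two housekeeping genes and non-targeting median, log2; matched to mean KSR1 knockdown profile by Pearson correlation and euclidean distance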", "reading the numbers": "mean correlation with KSR1 profile: higher = expression change more like KSR1 knockdown; mean distance from KSR1 profile: higher = expression change less like KSR1 knockdown", "note": "Here is an unselected part of about 14,000 reagents tested. 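Higher correlation or smaller distance means closer resemblance to KSR1 loss; control wells, including KSR1 knockdowns, recur on many plates.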 Not all columns of the deposit are shown. Not stated in the record: the time to read-out."}
{"target gene": "STX10 (syntaxin 10)", "mean correlation with KSR1 profile": -0.381, "mean distance from KSR1 profile": 1.66}
{"target gene": "CARNS1 (carnosine synthase 1)", "mean correlation with KSR1 profile": 0.329, "mean distance from KSR1 profile": 1.81}
{"target gene": "SPRR1A (small proline rich protein 1A)", "mean correlation with KSR1 profile": 0.174, "mean distance from KSR1 profile": 3.13}
{"target gene": "TNKS (tankyrase)", "mean correlation with KSR1 profile": -0.489, "mean distance from KSR1 profile": 2.39}
{"target gene": "GAB1 (GRB2 associated binding protein 1)", "mean correlation with KSR1 profile": -0.116, "mean distance from KSR1 profile": 2.5}
{"target gene": "RABGEF1 (RAB guanine nucleotide exchange factor 1)", "mean correlation with KSR1 profile": 0.7, "mean distance from KSR1 profile": 0.936}
{"target gene": "PSD3 (pleckstrin and Sec7 domain containing 3)", "mean correlation with KSR1 profile": -0.309, "mean distance from KSR1 profile": 2.28}
{"target gene": "VPS37C (VPS37C subunit of ESCRT-I)", "mean correlation with KSR1 profile": -0.203, "mean distance from KSR1 profile": 2.1}
{"target gene": "FKBPL (FKBP prolyl isomerase like)", "mean correlation with KSR1 profile": 0.192, "mean distance from KSR1 profile": 2.42}
{"target gene": "SLC44A2", "mean correlation with KSR1 profile": -0.488, "mean distance from KSR1 profile": 3.73}
{"target gene": "MNMIP1 (manchette microtubule inner protein 1)", "mean correlation with KSR1 profile": 0.781, "mean distance from KSR1 profile": 1.05}
{"target gene": "GAS2L1 (growth arrest specific 2 like 1)", "mean correlation with KSR1 profile": 0.0458, "mean distance from KSR1 profile": 1.31}
{"target gene": "SLC39A9", "mean correlation with KSR1 profile": -0.316, "mean distance from KSR1 profile": 2.21}
{"target gene": "BANF1 (barrier to autointegration nuclear assembly factor 1)", "mean correlation with KSR1 profile": -0.353, "mean distance from KSR1 profile": 3.42}
{"target gene": "ASPSCR1 (ASPSCR1 tether for SLC2A4, UBX domain containing)", "mean correlation with KSR1 profile": -0.0162, "mean distance from KSR1 profile": 2.78}
{"target gene": "HIPK4 (homeodomain interacting protein kinase 4)", "mean correlation with KSR1 profile": 0.319, "mean distance from KSR1 profile": 2.2}
{"target gene": "C8orf44 (chromosome 8 putative open reading frame 44)", "mean correlation with KSR1 profile": -0.418, "mean distance from KSR1 profile": 2.87}
{"target gene": "SEC22B (SEC22 homolog B, vesicle trafficking protein)", "mean correlation with KSR1 profile": -0.0191, "mean distance from KSR1 profile": 3.7}
{"target gene": "ADIRF (adipogenesis regulatory factor)", "mean correlation with KSR1 profile": -0.422, "mean distance from KSR1 profile": 2.28}

2 entries from above, sorted by “mean distance from KSR1 profile”, highest first.
{"target gene": "SEC22B (SEC22 homolog B, vesicle trafficking protein)", "mean correlation with KSR1 profile": -0.0191, "mean distance from KSR1 profile": 3.7}
{"target gene": "C8orf44 (chromosome 8 putative open reading frame 44)", "mean correlation with KSR1 profile": -0.418, "mean distance from KSR1 profile": 2.87}
